Publication PMC9164050, “N-Terminus-Mediated Solution Structure of Dimerization Domain of PRC1” (Current Issues in Molecular Biology, 2022)
Results are given in words; binding and its absence hold for the method and conditions named. Some entries that bind do so weakly or less than the wild type.

Biological target: PRC1 dimerization domain (PRC1-DD; aa 1-65 of Protein Regulator of Cytokinesis 1) (human) (UniProt O43663)
Assay: NMR solution structure; 0.5-1.0 mM protein, 50 mM sodium phosphate, 150 mM NaCl, 5 mM DTT, pH 7.4, 298 K; intermolecular NOEs from isotopic heterodimers of unlabelled and 15N-13C-labelled PRC1-DD; both purified

B1: PRC1 dimerization domain (PRC1-DD; aa 1-65 of Protein Regulator of Cytokinesis 1) (domain or fragment, human, UniProt O43663-1 1-65, looked up)
chain: MRRSEVLAEESIVCLQKALNHLREIWELIGIPEDQRLQRTEVVKKHIKELLDMMIAEEESLKERL
notes: Protein Regulator of Cytokinesis 1 (PRC1), human, isoform 1 (NP_003972; full length 620 residues), residues 1-65 (dimerization domain); Cloned between Nde I and Xho I of pET-21a with a C-terminal His-tag; no removal of the tag is described; For NMR the protein was 15N- or 15N/13C-labelled; isotopic heterodimers were made by mixing unlabelled and labelled protein in 8 M urea; also called …
**Q.** How did the binding turn out when B1 was run?
**A.** binds
